These are yes or no findings as the source states them, for the method shown. For some assays here: In cells and extracts the contact can be indirect. Some results given as binding are weak or reduced against the parent protein; the word gives no strength.
Assays:
[1] = biological target: endogenous PHB2 of HEK293 cells (human (endogenous in HEK293)) (UniProt Q99623); assay: proximity ligation; Duolink in situ PLA in fixed, permeabilised HEK293 cells treated with 5 μg/ml A/O for 4 h (with or without MG132 10 μM); anti-GFP with anti-PHB2, or anti-FLAG with anti-LC3
[2] = biological target: 3 × FLAG-PHB2 (prohibitin 2), wild type (UniProt Q99623); assay: co-IP; lysates of transfected HEK293T cells treated with DMSO (normal condition, no A/O); precipitated with anti-FLAG antibody; EGFP-Parkin detected with anti-GFP
[3] = biological target: 3 × FLAG-PHB2 (prohibitin 2), wild type (UniProt Q99623); assay: co-IP; lysates of transfected HEK293T cells (also si-OPTN cells with HA-OPTN and mCherry-Parkin) treated with 5 μg/ml A/O for 4 h; precipitated with anti-FLAG antibody on Protein G Magnetic Beads, 4 °C, 4 h; EGFP-tagged partner detected with anti-GFP
His-PHB2, wild type = His-PHB2, wild type (UniProt Q99623); assay: pull-down; His pull-down: His-tagged protein from E. coli held on His-tag resin, incubated with the GST-tagged protein 2 h at 4 °C, washed four times with PBS, immunoblot; both purified
[4] = biological target: endogenous PHB2 of SH-SY5Y cells (human (endogenous in SH-SY5Y)) (UniProt Q99623); assay: co-IP; lysates of primary MEFs, SH-SY5Y cells (lentiviral mCherry-Parkin) or HeLa cells treated with 5 μg/ml A/O for 4 h; precipitated with anti-PHB2 antibody; blots with anti-Parkin and anti-LC3

Amino acid sequences for entries named in this document (tags omitted).
UniProt O60260: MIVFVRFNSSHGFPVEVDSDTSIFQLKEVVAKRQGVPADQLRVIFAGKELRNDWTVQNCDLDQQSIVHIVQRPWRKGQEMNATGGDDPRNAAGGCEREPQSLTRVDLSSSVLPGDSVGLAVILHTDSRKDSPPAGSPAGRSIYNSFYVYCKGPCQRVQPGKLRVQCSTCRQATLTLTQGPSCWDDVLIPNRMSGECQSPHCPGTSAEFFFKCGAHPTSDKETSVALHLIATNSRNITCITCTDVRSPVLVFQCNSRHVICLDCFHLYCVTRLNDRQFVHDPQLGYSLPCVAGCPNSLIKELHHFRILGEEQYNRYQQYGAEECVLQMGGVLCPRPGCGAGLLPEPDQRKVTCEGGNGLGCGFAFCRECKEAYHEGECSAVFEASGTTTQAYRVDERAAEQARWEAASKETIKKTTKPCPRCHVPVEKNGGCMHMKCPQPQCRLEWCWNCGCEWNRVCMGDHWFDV

Question: Which binding [1] does the source give for “EGFP-Parkin, wild type (from UniProt O60260 1-465)” here?
Answer: binds

Question: And the binding [2]?
Answer: binds weakly

Question: What about the binding [3] of the same substance?
Answer: binds

Question: Which binding (His-PHB2, wild type) does the source give for “GST-Parkin, wild type (from UniProt O60260 1-465)” here?
Answer: binds

Question: For “mCherry-Parkin (lentiviral, in SH-SY5Y cells) (from UniProt O60260 1-465)”, which binding [4] is on record?
Answer: binds

From publication PMC9763867
